Literature values, collected in patent US20160115186A1, “PHOSPHORIC ACID/PHOSPHONIC ACID DERIVATIVES AND MEDICINAL USES THEREOF” (priority 2013, published 2016).
Some results were stated once for a whole list of compounds, not compound by compound.

Settings: Kamiya et al. 2002; read-out: cytotoxicity CC50; cited from earlier work

Structure (SMILES)	CC50
COc1ccc(Sc2nc(N)nc3c2ncn3CCOCP(=O)(O)O)cc1 [Compound 602076]	> 1000 µM
COc1ccc(Sc2nc(N)nc3c2ncn3CCOCP(=O)(OCC(F)(F)F)OCC(F)(F)F)cc1 [MCC-478]	> 1000 µM
